# According to PubChem BioAssay AID651640 (Broad Institute, 2012):
# Values joined by “and” are separate entries in the source; they are usually repeats but may differ in a detail not shown here. Equal values may be shown once. In all, about 350,000 compounds went through this assay and about 6,000 (1.7%) were called active. The inconclusive results got no clear call from the source; some entries with a clear call stand among them for comparison. Rule as the data show it: active = CPE inhibition above about 20% (passing the limit was not always enough); inconclusive = no clear call, values can overlap the other calls; tested in BHK-21 cells. A structure can be active in one record and inactive in another.
# Assay: protection of cells from dengue 2 killing – plate reader, single concentration, primary screen (AID 651640);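 also: 0% = median of neutral control wells and 100% = median of positive control wells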
# Conditions: DENV2-infected cells, cytopathic effect rescue, at 9.99 µM, stronger effect = higher value
row,Compound,CPE inhibition
1,O=C(NCC[C@H]1CC[C@H](NC(=O)C2CCCCC2)[C@@H](CO)O1)Nc1ccc(Cl)cc1,inactive: 3.06%
2,Cc1ccc(NC(=O)/C=C/c2ccc([N+](=O)[O-])s2)c(C)c1,inactive: 0.389%
3,O=C1C=C(c2ccc3[nH]ccc3c2)C[C@@H](c2ccc(F)cc2)C1,inconclusive: 60.4%
4,C[C@H](CO)N1C[C@H](C)[C@@H](CN(C)Cc2ccc(C(=O)O)cc2)Oc2ccc(NS(=O)(=O)c3ccccc3)cc2C1=O,inactive: -6.71%
5,C[C@H]1CN([C@@H](C)CO)C(=O)Cc2cc(NC(=O)C3CC3)ccc2O[C@@H]1CN(C)C(=O)Nc1ccccc1,inconclusive: 36.8%
6,CCCCSCCCNC(=O)CCCN1C(=O)c2ccccc2Sc2ncccc21,inconclusive: 22.5%
7,C[C@H]1CN([C@@H](C)CO)C(=O)Cc2cc(NS(=O)(=O)c3ccc(F)cc3)ccc2O[C@@H]1CN(C)Cc1ccc2c(c1)OCO2,inactive: -3.36%
8,CO[C@H](CN(C)S(=O)(=O)c1cccc(Cl)c1)[C@H](C)CN([C@H](C)CO)S(=O)(=O)c1cccc(Cl)c1,inconclusive: 55.9%
9,O=C(C[C@H]1C[C@H]2c3cc(NC(=O)c4cccnc4)ccc3O[C@H]2[C@@H](CO)O1)NCc1ccccc1F,inconclusive: 34.5%
10,COc1ccc(Cl)cc1-c1cc(C(=O)NCc2ccco2)[nH]n1,inconclusive: 67.3%
11,COC(=O)CN=C1OC(=O)N2C(=O)C3=C4[C@@H](C[C@H]5C(=O)N(c6ccccc6)C(=O)[C@H]5[C@H]4[C@@]12Cc1ccccc1)[C@H]1C(=O)N(c2ccccc2)C(=O)[C@H]1[C@H]3C,inconclusive: 28.1%
12,CC(C)C#Cc1cnc2c(c1)C(=O)N([C@@H](C)CO)C[C@@H](C)[C@H](CN(C)C(=O)Cc1ccncc1)O2,inconclusive: 27.6%
13,C[C@H]1CCCCO[C@@H](CN(C)C(=O)Nc2ccc3c(c2)OCO3)[C@@H](C)CN([C@@H](C)CO)C(=O)c2cc(NC(=O)NC3CCCCC3)ccc2O1,active: 48.1%
14,C[C@H](CO)N1C[C@H](C)[C@H](CN(C)Cc2ccc(Oc3ccccc3)cc2)Oc2ccc(NC(=O)Cn3cnnn3)cc2CC1=O,inactive: 17.5%
15,C[C@H](CO)N1C[C@H](C)[C@H](CN(C)C(=O)Nc2cccc3ccccc23)OCCCC[C@H](C)Oc2ccc(NC(=O)Nc3ccc4c(c3)OCO4)cc2C1=O,inconclusive: 20%
16,CCCCCCN1CCN(C2CN(CCc3ccccc3)S(=O)(=O)C2)CC1 (centres undefined),inconclusive: 26.8%
17,C/C(=N\Nc1ccc2nncn2n1)c1cccs1,inconclusive: 37.5%
18,CC(=O)N1CSCC1C(=O)NNS(=O)(=O)c1ccccc1 (centres undefined),inconclusive: 24.5%
19,C[C@H]1CN([C@@H](C)CO)C(=O)CCCn2cc(nn2)CO[C@@H]1CN(C)C(=O)c1ccc(N2CCN(C)CC2)cc1,inactive: 2.19% and inactive: -4.52% and active: 64.4%
20,C[C@@H]1CN([C@@H](C)CO)C(=O)c2cc(-c3ccccc3F)cnc2O[C@H]1CN(C)C(=O)CN(C)C,inactive: -8.14%
21,c1ccc(-c2nnc3n2-c2ccccc2SC3)cc1,inactive: 0.565%
22,C[C@@H]1CN([C@H](C)CO)C(=O)c2cc(C#CCN(C)C)cnc2O[C@@H]1CN(C)C(=O)c1cccnc1,inconclusive: 40.2%

# An excerpt from above in order of length of the SMILES, low to high.
row,Compound,CPE inhibition
21,c1ccc(-c2nnc3n2-c2ccccc2SC3)cc1,inactive: 0.565%
12,CC(C)C#Cc1cnc2c(c1)C(=O)N([C@@H](C)CO)C[C@@H](C)[C@H](CN(C)C(=O)Cc1ccncc1)O2,inconclusive: 27.6%
4,C[C@H](CO)N1C[C@H](C)[C@@H](CN(C)Cc2ccc(C(=O)O)cc2)Oc2ccc(NS(=O)(=O)c3ccccc3)cc2C1=O,inactive: -6.71%

# Continued.

row,Compound,CPE inhibition
1,CCc1ccc(C(=O)NNC(=O)c2c(CC)noc2C)cc1,active: 37.1%
2,CN(CC(=O)NCc1cccs1)CC(=O)Nc1ccc(F)c(F)c1F,inconclusive: 23.9%
3,CCOC(=O)c1c(C)[nH]c(C)c1C(=O)COC(=O)c1ccc([N+](=O)[O-])s1,inconclusive: 58%
4,Cn1cc(/C=C/C(=O)c2ccccc2)c2ccccc21,inactive: -5.79%
5,CCNC(=O)C[C@H]1CC[C@H]2[C@H](COc3ccc(NC(=O)c4cccc(C(F)(F)F)c4)cc3C(=O)N2C)O1,inconclusive: 62.6%
6,NC(=O)c1ncn([C@@H]2O[C@H](CNCc3cnc(N4CCOCC4)nc3)[C@@H](O)[C@H]2O)n1,inconclusive: 42%
7,CO[C@@H]1CN(C)C(=O)c2ccc(NS(=O)(=O)c3ccccc3)cc2OC[C@H](C)N(C)C[C@H]1C,active: 25%
8,COC(=O)CSc1nc(C)cc(C)c1C#N,inconclusive: 24.1%
9,COc1ccccc1CN(C)C[C@@H]1OCc2cnnn2CCCC(=O)N([C@H](C)CO)C[C@H]1C,inconclusive: 52.5%
10,CC(=O)N1c2ccc(S(=O)(=O)N3CCCCC3)cc2CC1C(=O)NCc1ccccc1C (centres undefined),inactive: -11.5%
11,O=C1C=C(O)c2cccc(O)c2C1=O,active: 43.6%
12,C[C@@H]1CCCCO[C@@H](CN(C)C(=O)Cc2ccccc2)[C@@H](C)CN([C@H](C)CO)C(=O)c2cc(NS(=O)(=O)c3ccc(Cl)cc3)ccc2O1,active: 24.5%
13,O=S(=O)(N1CCCCCC1)N1CCN(S(=O)(=O)N2CCCCC2)CC1,inactive: 7.45%
14,Cc1ccc([C@@H]2CC=C(C(=O)O)[C@H](c3ccccc3)N2S(=O)(=O)c2ccc(C)cc2)cc1,inconclusive: 67.4%
15,O=C(Nc1ccncc1)C1CC(=O)N(Cc2ccccc2)C1 (centres undefined),inconclusive: 25.8%
16,Cc1ccc(S(=O)(=O)N(C)C[C@H]2OCCCC[C@H](C)Oc3ccc(NS(=O)(=O)c4c(C)noc4C)cc3C(=O)N([C@@H](C)CO)C[C@H]2C)cc1,active: 48.5%
17,C=CCN1C=CC=C/C1=C1\SC(=S)N(C)C1=O,inactive: 8.99%
18,C[C@@H]1CCCCO[C@H](CN(C)CC2CCCCC2)[C@@H](C)CN([C@@H](C)CO)C(=O)c2cc(NS(=O)(=O)c3cccs3)ccc2O1,inactive: -0.787%
19,COc1ccc(CNC(=O)C2CCCN(S(=O)(=O)c3ccc(-n4cnnn4)cc3)C2)cc1 (centres undefined),inconclusive: 25%
20,O=C(C[C@@H]1C=C[C@H](NC(=O)Nc2ccc(F)cc2)[C@H](CO)O1)NCc1cccc(F)c1,inconclusive: 20.2%
21,OC(CN(Cc1ccccc1)Cc1ccccc1)c1ccccc1 (centres undefined),inconclusive: 50.4%
22,Cc1ccccc1OCC(O)CN1CCN(CC(O)COc2ccccc2C)CC1 (centres undefined),inactive: 1.13%

# A different layout for part of the listing above.
row	Compound	CPE inhibition
8	COC(=O)CSc1nc(C)cc(C)c1C#N	inconclusive: 24.1%
9	COc1ccccc1CN(C)C[C@@H]1OCc2cnnn2CCCC(=O)N([C@H](C)CO)C[C@H]1C	inconclusive: 52.5%
